Data from publication PMC5432864.

Biological target: Flag-tagged porcine 2'-5'-oligoadenylate synthetase-like protein (pOASL) (porcine)
Assay: co-IP

binding: no binding
B1: Myc-tagged porcine RIG-I (pRIG-I) (protein, UniProt Q9GLV6 1-940)
chain: MTAEQRRNLHAFGDYVRKTLDPTFILSYMAPWFRDDEVQHIQAEKNNKGPTEAASLFLQFLLELQEEGWFRGFLDALNQAGYCGLCEAIESWDFQKIEKLEEYRSLLRRLQPEFKTTINPKDILPEIAECLISQECEEILQICSSKGLMAGAEKMVECLLRSDKENWPKTLKLALEKEESRFSELWMVDKGAEDVKMKDLEDDEMKTCDVQIFYKEEPENQNLSQNSCSSSAPHTYSPLKPRKYQLELALPAQNGKNTIICAPTGCGKTFVSLLICEHHLKKFPRGRKGKVVFFAIQLPVYEQQKSVFSKHFERLGYKVAGISGATSDTVCVEQIVENSDIIILTPQILVNCLTNGTIPSLSVFTLMIFDECHNTSKQHPYNVIMFSYLDRKLGGSSDSLPQVIGLTASVGVGDAKNKAEATEYICKLCASLDTSVIATVRDNLEELEEVVYKPQKFFRKVELRTTDRFKCIISQLMMEIESLAKSIFEELGTITLGGLFQIQNSNFGTQKYEQWIVKVQKECAVFQMPDKDKESRICKALFSYMSHLRIYNDALIINEHARMKDALDYLKDFFRNIRAAGFDEIEQDLTQRFEEKLQELESISIDPSNENPKLRDLCFILQEEYHLNPETRTILFVKTRALVDALKKWIKENPKLSFLKPSILTGRGKTNQNIGMTLPAQKCVLDTFRTDKDNKILITTSVADEGIDIAQCNLVILYEYVGNVIKMIQTRGRGRARGSKCFLLTANADLIDKEKMNMYKEEMMNGAILILQTWDEAVFKEKIHQIQIREKIIRDNQGKPEPVPDKKTKKLLCKKCKAFACYTADIRMVEKCHFTVVGDAFRERFVSKLHPKPKSFGNIEKRAKIYCARPDCSHDWGIYVRYKAFEMPFIKIESFVVEDIATGVQTVHAKWKDFNFEKLSFDAAEMAGGAQDLGLQGMGN

Results are given in words; binding and its absence hold for the method and conditions named. Binding seen in cells or lysates may run through a third protein. Sequences can lack the tags named with a protein.
